Source: the supplement of paper PMC12823440, “Inhibitors supercharge kinase turnover through native proteolytic circuits” (Nature, 2025)
Counter-ions that a name gives are not always drawn. The list shows a part of the results. The calls rarely recur for the same compound in another form.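 In K562 cells expressing nanoluciferase-fused kinases, luminescence was recorded at 4 h intervals between 2 and 18 h, normalized as percent of control with DMSO at 100% and a positive control at 0%. A significant (2 sigma) signal drop marks a time point as decreased. The authors' rule for a hit is not shown and takes in more than the number of time points.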

By UniProt entry, the sequences of proteins in these tests, tags left out. Where a name states a change or a piece, a line headed by the entry shows the natural chain unless it says otherwise.
UniProt P23458: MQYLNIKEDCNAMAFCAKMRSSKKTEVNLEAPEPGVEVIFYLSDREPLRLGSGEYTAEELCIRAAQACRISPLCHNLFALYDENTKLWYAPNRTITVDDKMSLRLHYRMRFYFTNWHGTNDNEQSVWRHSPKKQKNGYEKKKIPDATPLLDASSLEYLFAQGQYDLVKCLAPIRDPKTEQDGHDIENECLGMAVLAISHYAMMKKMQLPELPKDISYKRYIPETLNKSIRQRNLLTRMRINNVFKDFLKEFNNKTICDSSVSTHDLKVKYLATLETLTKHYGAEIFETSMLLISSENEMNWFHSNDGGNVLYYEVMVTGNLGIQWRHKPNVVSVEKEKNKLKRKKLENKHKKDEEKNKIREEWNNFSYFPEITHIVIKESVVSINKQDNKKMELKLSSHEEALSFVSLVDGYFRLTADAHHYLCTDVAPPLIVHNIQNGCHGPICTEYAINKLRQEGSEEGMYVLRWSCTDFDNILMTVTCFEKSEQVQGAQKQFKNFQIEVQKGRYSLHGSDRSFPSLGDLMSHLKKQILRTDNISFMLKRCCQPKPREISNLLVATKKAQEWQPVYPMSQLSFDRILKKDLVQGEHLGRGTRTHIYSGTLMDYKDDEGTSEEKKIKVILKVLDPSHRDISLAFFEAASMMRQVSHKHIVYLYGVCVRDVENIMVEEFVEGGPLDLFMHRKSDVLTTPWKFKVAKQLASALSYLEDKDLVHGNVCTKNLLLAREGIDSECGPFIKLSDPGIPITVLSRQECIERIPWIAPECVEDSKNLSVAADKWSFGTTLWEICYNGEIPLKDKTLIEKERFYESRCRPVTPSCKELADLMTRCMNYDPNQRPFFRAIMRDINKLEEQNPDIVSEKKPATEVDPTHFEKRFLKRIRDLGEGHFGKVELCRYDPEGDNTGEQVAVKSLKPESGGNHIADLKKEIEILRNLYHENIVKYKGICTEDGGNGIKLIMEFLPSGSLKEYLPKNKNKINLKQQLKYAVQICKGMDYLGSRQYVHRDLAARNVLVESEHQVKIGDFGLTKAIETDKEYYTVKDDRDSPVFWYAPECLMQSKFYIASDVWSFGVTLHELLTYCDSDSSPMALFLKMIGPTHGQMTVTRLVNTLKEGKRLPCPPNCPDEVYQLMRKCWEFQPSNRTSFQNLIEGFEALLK
UniProt P06239: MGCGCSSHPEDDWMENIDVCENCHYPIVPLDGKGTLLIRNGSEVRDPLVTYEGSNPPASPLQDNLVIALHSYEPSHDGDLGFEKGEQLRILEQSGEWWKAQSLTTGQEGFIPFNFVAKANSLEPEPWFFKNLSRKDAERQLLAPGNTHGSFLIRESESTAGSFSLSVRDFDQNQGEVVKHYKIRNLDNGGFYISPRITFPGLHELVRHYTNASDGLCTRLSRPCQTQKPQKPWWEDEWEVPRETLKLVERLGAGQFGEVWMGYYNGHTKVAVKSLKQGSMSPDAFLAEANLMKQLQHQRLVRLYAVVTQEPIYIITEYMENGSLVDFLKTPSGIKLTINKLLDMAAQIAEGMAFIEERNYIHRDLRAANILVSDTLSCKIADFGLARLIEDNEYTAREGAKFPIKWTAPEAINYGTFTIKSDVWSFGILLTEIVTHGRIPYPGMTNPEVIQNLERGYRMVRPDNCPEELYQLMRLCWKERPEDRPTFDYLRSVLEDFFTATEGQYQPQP
UniProt P53667: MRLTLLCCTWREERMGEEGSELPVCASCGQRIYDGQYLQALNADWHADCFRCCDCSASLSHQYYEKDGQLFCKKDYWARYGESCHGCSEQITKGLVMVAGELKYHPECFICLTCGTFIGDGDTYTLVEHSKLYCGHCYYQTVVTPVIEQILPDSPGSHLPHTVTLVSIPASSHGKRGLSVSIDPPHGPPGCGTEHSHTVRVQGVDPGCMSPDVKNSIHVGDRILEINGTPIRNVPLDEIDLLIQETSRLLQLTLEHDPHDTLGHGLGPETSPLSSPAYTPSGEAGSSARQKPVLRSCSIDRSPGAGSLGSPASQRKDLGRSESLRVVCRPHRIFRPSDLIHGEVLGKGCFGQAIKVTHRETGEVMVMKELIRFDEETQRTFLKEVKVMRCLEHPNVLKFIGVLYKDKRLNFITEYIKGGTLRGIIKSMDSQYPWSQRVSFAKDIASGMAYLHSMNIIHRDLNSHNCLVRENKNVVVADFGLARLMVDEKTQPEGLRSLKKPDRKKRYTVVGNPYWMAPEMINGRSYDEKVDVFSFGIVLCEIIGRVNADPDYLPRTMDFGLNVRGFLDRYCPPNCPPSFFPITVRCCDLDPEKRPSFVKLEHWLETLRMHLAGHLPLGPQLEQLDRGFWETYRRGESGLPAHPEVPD
UniProt P53671: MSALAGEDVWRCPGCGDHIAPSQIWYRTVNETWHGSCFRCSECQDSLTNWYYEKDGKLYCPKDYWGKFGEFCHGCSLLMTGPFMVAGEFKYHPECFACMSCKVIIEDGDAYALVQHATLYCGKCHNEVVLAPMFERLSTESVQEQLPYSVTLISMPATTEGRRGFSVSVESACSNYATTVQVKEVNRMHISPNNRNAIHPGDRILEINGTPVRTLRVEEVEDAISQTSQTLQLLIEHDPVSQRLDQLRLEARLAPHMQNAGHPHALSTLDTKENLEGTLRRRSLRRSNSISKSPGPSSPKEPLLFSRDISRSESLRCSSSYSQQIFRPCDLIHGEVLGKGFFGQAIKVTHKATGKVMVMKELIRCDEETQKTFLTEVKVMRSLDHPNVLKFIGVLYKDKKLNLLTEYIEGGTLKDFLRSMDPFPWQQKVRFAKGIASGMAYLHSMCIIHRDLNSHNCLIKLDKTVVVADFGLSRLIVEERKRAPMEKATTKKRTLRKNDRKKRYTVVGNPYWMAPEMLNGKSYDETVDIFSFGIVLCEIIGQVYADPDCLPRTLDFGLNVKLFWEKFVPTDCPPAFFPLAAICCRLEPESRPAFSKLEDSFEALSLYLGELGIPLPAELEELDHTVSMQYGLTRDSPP
UniProt Q8IWU2: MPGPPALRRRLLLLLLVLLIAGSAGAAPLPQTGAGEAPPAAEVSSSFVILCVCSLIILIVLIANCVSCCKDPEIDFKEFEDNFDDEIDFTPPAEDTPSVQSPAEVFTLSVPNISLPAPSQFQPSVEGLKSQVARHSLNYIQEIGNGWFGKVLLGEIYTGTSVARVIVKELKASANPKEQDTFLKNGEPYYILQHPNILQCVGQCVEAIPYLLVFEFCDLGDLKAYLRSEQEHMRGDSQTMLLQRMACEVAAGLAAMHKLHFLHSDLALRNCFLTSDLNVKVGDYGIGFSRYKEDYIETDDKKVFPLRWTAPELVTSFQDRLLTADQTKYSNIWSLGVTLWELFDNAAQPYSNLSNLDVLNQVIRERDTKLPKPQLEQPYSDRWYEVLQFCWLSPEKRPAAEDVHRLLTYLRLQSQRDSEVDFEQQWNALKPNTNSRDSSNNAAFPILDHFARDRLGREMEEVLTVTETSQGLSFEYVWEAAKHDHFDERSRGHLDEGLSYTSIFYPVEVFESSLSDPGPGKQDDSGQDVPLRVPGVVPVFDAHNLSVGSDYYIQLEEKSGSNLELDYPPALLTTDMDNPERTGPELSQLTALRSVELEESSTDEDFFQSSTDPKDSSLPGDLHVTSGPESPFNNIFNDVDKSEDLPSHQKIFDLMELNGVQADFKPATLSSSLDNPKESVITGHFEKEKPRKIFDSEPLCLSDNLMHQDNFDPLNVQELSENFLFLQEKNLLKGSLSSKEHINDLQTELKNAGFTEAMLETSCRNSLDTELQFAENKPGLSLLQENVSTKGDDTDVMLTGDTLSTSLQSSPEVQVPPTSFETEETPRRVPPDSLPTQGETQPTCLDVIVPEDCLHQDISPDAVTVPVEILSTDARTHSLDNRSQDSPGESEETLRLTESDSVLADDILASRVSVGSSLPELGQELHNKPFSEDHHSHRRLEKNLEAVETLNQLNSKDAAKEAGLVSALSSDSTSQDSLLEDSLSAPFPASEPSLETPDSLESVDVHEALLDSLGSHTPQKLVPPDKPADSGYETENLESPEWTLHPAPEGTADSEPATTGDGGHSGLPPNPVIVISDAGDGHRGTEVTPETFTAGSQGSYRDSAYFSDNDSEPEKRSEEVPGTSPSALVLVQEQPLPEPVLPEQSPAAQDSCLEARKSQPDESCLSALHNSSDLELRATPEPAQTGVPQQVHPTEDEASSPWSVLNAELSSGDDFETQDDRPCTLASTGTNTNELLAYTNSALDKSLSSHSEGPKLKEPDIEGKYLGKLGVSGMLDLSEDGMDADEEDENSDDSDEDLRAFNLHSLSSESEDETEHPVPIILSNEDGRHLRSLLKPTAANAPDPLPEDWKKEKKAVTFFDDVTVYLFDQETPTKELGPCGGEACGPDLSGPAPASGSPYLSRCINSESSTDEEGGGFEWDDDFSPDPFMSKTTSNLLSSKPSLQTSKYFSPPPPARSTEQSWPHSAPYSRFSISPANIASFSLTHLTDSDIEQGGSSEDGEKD
UniProt Q9BUB5: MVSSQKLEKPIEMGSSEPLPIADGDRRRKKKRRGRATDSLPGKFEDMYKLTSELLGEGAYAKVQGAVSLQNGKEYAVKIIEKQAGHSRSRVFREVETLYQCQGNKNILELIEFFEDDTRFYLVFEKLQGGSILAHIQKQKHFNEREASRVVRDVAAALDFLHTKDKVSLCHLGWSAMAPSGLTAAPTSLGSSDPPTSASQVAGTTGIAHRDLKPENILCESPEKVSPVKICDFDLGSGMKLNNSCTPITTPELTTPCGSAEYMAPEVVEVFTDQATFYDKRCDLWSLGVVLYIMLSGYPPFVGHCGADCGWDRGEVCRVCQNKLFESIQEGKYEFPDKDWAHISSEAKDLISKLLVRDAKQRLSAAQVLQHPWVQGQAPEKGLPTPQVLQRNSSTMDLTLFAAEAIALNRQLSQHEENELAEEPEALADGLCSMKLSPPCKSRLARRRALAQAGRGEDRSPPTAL
UniProt Q16620, whole entry, looked up: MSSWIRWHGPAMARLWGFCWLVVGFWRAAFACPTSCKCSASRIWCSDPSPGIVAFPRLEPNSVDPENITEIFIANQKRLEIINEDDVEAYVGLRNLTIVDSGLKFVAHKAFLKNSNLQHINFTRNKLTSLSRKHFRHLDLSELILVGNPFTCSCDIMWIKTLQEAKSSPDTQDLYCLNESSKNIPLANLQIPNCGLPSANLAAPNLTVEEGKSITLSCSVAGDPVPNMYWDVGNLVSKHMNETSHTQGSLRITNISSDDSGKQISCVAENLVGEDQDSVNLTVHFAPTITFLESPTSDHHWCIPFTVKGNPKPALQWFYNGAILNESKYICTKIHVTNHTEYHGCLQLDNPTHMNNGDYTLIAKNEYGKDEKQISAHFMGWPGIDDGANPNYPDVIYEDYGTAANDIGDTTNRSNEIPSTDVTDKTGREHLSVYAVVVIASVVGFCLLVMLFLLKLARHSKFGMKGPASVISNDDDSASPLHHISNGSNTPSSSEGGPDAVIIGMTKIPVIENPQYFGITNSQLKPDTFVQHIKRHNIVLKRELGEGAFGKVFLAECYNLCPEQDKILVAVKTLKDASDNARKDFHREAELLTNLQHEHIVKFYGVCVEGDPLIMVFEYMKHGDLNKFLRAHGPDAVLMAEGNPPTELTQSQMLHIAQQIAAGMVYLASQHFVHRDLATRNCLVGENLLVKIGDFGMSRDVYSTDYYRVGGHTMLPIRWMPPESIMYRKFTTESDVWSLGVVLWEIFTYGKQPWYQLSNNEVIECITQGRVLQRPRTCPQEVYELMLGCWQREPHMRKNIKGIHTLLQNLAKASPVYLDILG
UniProt Q16288, whole entry, looked up: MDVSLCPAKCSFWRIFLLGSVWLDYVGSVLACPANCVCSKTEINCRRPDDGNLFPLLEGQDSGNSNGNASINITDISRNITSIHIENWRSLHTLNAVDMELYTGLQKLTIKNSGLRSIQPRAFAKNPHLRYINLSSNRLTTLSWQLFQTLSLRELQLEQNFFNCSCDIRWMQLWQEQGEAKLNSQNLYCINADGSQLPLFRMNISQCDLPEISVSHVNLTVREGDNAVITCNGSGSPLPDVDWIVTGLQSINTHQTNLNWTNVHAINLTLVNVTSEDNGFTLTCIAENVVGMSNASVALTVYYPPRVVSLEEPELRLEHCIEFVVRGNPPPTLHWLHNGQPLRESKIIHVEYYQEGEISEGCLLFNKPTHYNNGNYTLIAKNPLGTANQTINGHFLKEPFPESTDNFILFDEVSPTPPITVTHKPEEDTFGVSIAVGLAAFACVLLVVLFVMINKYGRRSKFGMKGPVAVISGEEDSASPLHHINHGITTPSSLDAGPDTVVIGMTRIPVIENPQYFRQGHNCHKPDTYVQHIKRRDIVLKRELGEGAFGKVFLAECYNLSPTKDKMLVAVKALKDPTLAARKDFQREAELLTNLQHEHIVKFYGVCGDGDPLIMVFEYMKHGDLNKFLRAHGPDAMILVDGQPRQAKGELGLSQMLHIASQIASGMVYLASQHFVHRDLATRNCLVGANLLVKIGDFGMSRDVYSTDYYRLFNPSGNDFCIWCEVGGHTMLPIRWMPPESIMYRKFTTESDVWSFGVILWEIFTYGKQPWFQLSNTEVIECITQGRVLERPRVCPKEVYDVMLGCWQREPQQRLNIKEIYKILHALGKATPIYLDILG

Columns and labels:
Test in all cases: kinase-Nluc reporter destabilization hit call (1 = scored as downregulated) (binary); higher = compound decreases kinase abundance
Settings in all cases: K562; 2-18 h
IRAK3 = IRAK3 (UniProt Q9Y616)
JAK1 = JAK1 (UniProt P23458)
LCK = LCK (UniProt P06239)
LIMK1 = LIMK1 (UniProt P53667)
LIMK2 = LIMK2 (UniProt P53671)
LMTK2 = LMTK2 (UniProt Q8IWU2)
LYN = LYN (UniProt P07948)
MAP2K1 = MAP2K1 (UniProt Q02750)
MAP2K2 = MAP2K2 (UniProt P36507)
MAP4K2 = MAP4K2 (UniProt Q12851)
MAPK1 = MAPK1 (UniProt P28482)
MAPK4 = MAPK4 (UniProt P31152)
MAPKAPK2 = MAPKAPK2 (UniProt P49137)
MKNK1 = MKNK1 (UniProt Q9BUB5)
NTRK2 = NTRK2 (UniProt Q16620)
NTRK3 = NTRK3 (UniProt Q16288)
PAK4 = PAK4 (UniProt O96013)
PBK = PBK (UniProt Q96KB5)
PDGFRB = PDGFRB (UniProt P09619)
PDK1 = PDK1 (UniProt Q15118)

Measured: kinase-Nluc reporter destabilization hit call

c1cc(NC2CCNCC2)nc(-c2cnc3ccccn23)c1 [IRAK inhibitor 1] (10 µM)
inactive: IRAK3 = 0 | JAK1 = 0 | LCK 0 | LIMK1 = 0 | LIMK2 = 0 | LMTK2 = 0 | LYN 0 | MAP2K1 = 0 | MAP2K2 = 0 | MAP4K2 = 0 | MAPK1 = 0 | MAPK4 = 0 | MAPKAPK2 = 0 | MKNK1 = 0 | NTRK2 = 0 | NTRK3 = 0 | PAK4 = 0 | PBK 0 | PDGFRB 0 | PDK1 = 0

CC(C)(C[C@H](N)C(=O)O)C(F)F [NV-5138 (hydrochloride)] (10 µM)
inactive: IRAK3 = 0 | JAK1 = 0 | LCK 0 | LIMK1 = 0 | LIMK2 = 0 | LMTK2 = 0 | LYN 0 | MAP2K1 = 0 | MAP2K2 = 0 | MAP4K2 = 0 | MAPK1 = 0 | MAPK4 = 0 | MAPKAPK2 = 0 | MKNK1 = 0 | NTRK2 = 0 | NTRK3 = 0 | PAK4 = 0 | PBK 0 | PDGFRB 0 | PDK1 = 0

Cc1ncc(NC(=O)NC2c3ccccc3-c3ccccc32)c(-c2ccccc2)n1 (10 µM)
inactive: IRAK3 = 0 | JAK1 = 0 | LCK 0 | LIMK1 = 0 | LIMK2 = 0 | LMTK2 = 0 | LYN 0 | MAP2K1 = 0 | MAP2K2 = 0 | MAP4K2 = 0 | MAPK1 = 0 | MAPK4 = 0 | MAPKAPK2 = 0 | MKNK1 = 0 | NTRK2 = 0 | NTRK3 = 0 | PAK4 = 0 | PBK 0 | PDGFRB 0 | PDK1 = 0

CNC(=O)c1ccccc1Oc1nc(Nc2cc(OC)c(OC)c(OC)c2)ncc1Br (2.5 µM)
inactive: IRAK3 = 0 | JAK1 = 0 | LCK 0 | LIMK1 = 0 | LIMK2 = 0 | LMTK2 = 0 | LYN 0 | MAP2K1 = 0 | MAP2K2 = 0 | MAP4K2 = 0 | MAPK1 = 0 | MAPK4 = 0 | MAPKAPK2 = 0 | MKNK1 = 0 | NTRK2 = 0 | NTRK3 = 0 | PAK4 = 0 | PBK 0 | PDGFRB 0 | PDK1 = 0

O=C(NCc1cccc(O)c1)Nc1nc(-c2ccncc2)cs1 (10 µM)
inactive: IRAK3 = 0 | JAK1 = 0 | LCK 0 | LIMK1 = 0 | LIMK2 = 0 | LMTK2 = 0 | LYN 0 | MAP2K1 = 0 | MAP2K2 = 0 | MAP4K2 = 0 | MAPK1 = 0 | MAPK4 = 0 | MAPKAPK2 = 0 | MKNK1 = 0 | NTRK2 = 0 | NTRK3 = 0 | PAK4 = 0 | PBK 0 | PDGFRB 0 | PDK1 = 0

CN(c1ccc(NC(=O)Nc2ccc(OC(F)(F)F)cc2)cc1)c1ccnc(Nc2cccc(S(N)(=O)=O)c2)n1 (2.5 µM)
inactive: IRAK3 = 0 | JAK1 = 0 | LCK 0 | LIMK1 = 0 | LIMK2 = 0 | LMTK2 = 0 | LYN 0 | MAP2K1 = 0 | MAP2K2 = 0 | MAP4K2 = 0 | MAPK1 = 0 | MAPK4 = 0 | MAPKAPK2 = 0 | MKNK1 = 0 | NTRK2 = 0 | NTRK3 = 0 | PAK4 = 0 | PBK 0 | PDGFRB 0 | PDK1 = 0

NC(=O)N1CCC(CC(=O)N2CCC([C@H]3c4ncc(Br)cc4CCc4cc(Cl)cc(Br)c43)CC2)CC1 [Lonafarnib] (2.5 µM)
inactive: IRAK3 = 0 | JAK1 = 0 | LCK 0 | LIMK1 = 0 | LIMK2 = 0 | LMTK2 = 0 | LYN 0 | MAP2K1 = 0 | MAP2K2 = 0 | MAP4K2 = 0 | MAPK1 = 0 | MAPK4 = 0 | MAPKAPK2 = 0 | MKNK1 = 0 | NTRK2 = 0 | NTRK3 = 0 | PAK4 = 0 | PBK 0 | PDGFRB 0 | PDK1 = 0

COc1ncccc1-c1cnn2ccc(N3CCN(C(=O)OC(C)C)CC3)nc12 (10 µM)
inactive: IRAK3 = 0 | JAK1 = 0 | LCK 0 | LIMK1 = 0 | LIMK2 = 0 | LMTK2 = 0 | LYN 0 | MAP2K1 = 0 | MAP2K2 = 0 | MAP4K2 = 0 | MAPK1 = 0 | MAPK4 = 0 | MAPKAPK2 = 0 | MKNK1 = 0 | NTRK2 = 0 | NTRK3 = 0 | PAK4 = 0 | PBK 0 | PDGFRB 0 | PDK1 = 0

Cc1nc(-c2cnn(C)c2)nc2c1[nH]c1ncc(-c3ccc(N4CCN(C)CC4)cc3)cc12 [GNE 220 (hydrochloride)] (10 µM)
inactive: IRAK3 = 0 | JAK1 = 0 | LCK 0 | LIMK1 = 0 | LIMK2 = 0 | LMTK2 = 0 | LYN 0 | MAP2K1 = 0 | MAP2K2 = 0 | MAP4K2 = 0 | MAPK1 = 0 | MAPK4 = 0 | MAPKAPK2 = 0 | MKNK1 = 0 | NTRK2 = 0 | NTRK3 = 0 | PAK4 = 0 | PBK 0 | PDGFRB 0 | PDK1 = 0

C[C@H](NC(=O)[C@H]1NCC[C@@H]1O)c1ccc(-c2noc(CCC3CCCC3)n2)cc1 (10 µM)
inactive: IRAK3 = 0 | JAK1 = 0 | LCK 0 | LIMK1 = 0 | LIMK2 = 0 | LMTK2 = 0 | LYN 0 | MAP2K1 = 0 | MAP2K2 = 0 | MAP4K2 = 0 | MAPK1 = 0 | MAPK4 = 0 | MAPKAPK2 = 0 | MKNK1 = 0 | NTRK2 = 0 | NTRK3 = 0 | PAK4 = 0 | PBK 0 | PDGFRB 0 | PDK1 = 0

Pulled by structure from the list above (two):
NC(=O)N1CCC(CC(=O)N2CCC([C@H]3c4ncc(Br)cc4CCc4cc(Cl)cc(Br)c43)CC2)CC1 [Lonafarnib] (2.5 µM)
inactive: IRAK3 = 0 | JAK1 = 0 | LCK 0 | LIMK1 = 0 | LIMK2 = 0 | LMTK2 = 0 | LYN 0 | MAP2K1 = 0 | MAP2K2 = 0 | MAP4K2 = 0 | MAPK1 = 0 | MAPK4 = 0 | MAPKAPK2 = 0 | MKNK1 = 0 | NTRK2 = 0 | NTRK3 = 0 | PAK4 = 0 | PBK 0 | PDGFRB 0 | PDK1 = 0

C[C@H](NC(=O)[C@H]1NCC[C@@H]1O)c1ccc(-c2noc(CCC3CCCC3)n2)cc1 (10 µM)
inactive: IRAK3 = 0 | JAK1 = 0 | LCK 0 | LIMK1 = 0 | LIMK2 = 0 | LMTK2 = 0 | LYN 0 | MAP2K1 = 0 | MAP2K2 = 0 | MAP4K2 = 0 | MAPK1 = 0 | MAPK4 = 0 | MAPKAPK2 = 0 | MKNK1 = 0 | NTRK2 = 0 | NTRK3 = 0 | PAK4 = 0 | PBK 0 | PDGFRB 0 | PDK1 = 0

Continuation:

CNc1nc(Nc2cn(C(C)(C)C#N)nc2C)ncc1C(F)(F)F (10 µM)
inactive: IRAK3 = 0 | JAK1 = 0 | LCK 0 | LIMK1 = 0 | LIMK2 = 0 | LMTK2 = 0 | LYN 0 | MAP2K1 = 0 | MAP2K2 = 0 | MAP4K2 = 0 | MAPK1 = 0 | MAPK4 = 0 | MAPKAPK2 = 0 | MKNK1 = 0 | NTRK2 = 0 | NTRK3 = 0 | PAK4 = 0 | PBK 0 | PDGFRB 0 | PDK1 = 0

Cc1ccc(Oc2nc3cc(-c4ccc(-c5ccccc5)cc4)c(Cl)cc3[nH]2)cc1C(=O)O (10 µM)
inactive: IRAK3 = 0 | JAK1 = 0 | LCK 0 | LIMK1 = 0 | LIMK2 = 0 | LMTK2 = 0 | LYN 0 | MAP2K1 = 0 | MAP2K2 = 0 | MAP4K2 = 0 | MAPK1 = 0 | MAPK4 = 0 | MAPKAPK2 = 0 | MKNK1 = 0 | NTRK2 = 0 | NTRK3 = 0 | PAK4 = 0 | PBK 0 | PDGFRB 0 | PDK1 = 0

COc1nn(C)cc1Nc1nccc(-c2c[nH]c3c(NC(=O)[C@@H](C)N4CCN(C)CC4)cccc23)n1 (10 µM)
inactive: IRAK3 = 0 | JAK1 = 0 | LCK 0 | LIMK1 = 0 | LIMK2 = 0 | LMTK2 = 0 | LYN 0 | MAP2K1 = 0 | MAP2K2 = 0 | MAP4K2 = 0 | MAPK1 = 0 | MAPK4 = 0 | MAPKAPK2 = 0 | MKNK1 = 0 | NTRK2 = 0 | NTRK3 = 0 | PAK4 = 0 | PBK 0 | PDGFRB 0 | PDK1 = 0

O=C(Nc1nc(=O)n(Cc2ccc(Cl)cc2)s1)c1ccc(Cl)cc1 (10 µM)
inactive: IRAK3 = 0 | JAK1 = 0 | LCK 0 | LIMK1 = 0 | LIMK2 = 0 | LMTK2 = 0 | LYN 0 | MAP2K1 = 0 | MAP2K2 = 0 | MAP4K2 = 0 | MAPK1 = 0 | MAPK4 = 0 | MAPKAPK2 = 0 | MKNK1 = 0 | NTRK2 = 0 | NTRK3 = 0 | PAK4 = 0 | PBK 0 | PDGFRB 0 | PDK1 = 0

Cn1cc(C2=C(c3cccc(N)c3)C(=O)NC2=O)c2ccccc21 (10 µM)
inactive: IRAK3 = 0 | JAK1 = 0 | LCK 0 | LIMK1 = 0 | LIMK2 = 0 | LMTK2 = 0 | LYN 0 | MAP2K1 = 0 | MAP2K2 = 0 | MAP4K2 = 0 | MAPK1 = 0 | MAPK4 = 0 | MAPKAPK2 = 0 | MKNK1 = 0 | NTRK2 = 0 | NTRK3 = 0 | PAK4 = 0 | PBK 0 | PDGFRB 0 | PDK1 = 0

O=C(O)c1cccc(CN2C(=O)/C(=C(\c3ccccc3)c3ccc(Cl)cc3)c3ccccc32)c1 (2.5 µM)
inactive: IRAK3 = 0 | JAK1 = 0 | LCK 0 | LIMK1 = 0 | LIMK2 = 0 | LMTK2 = 0 | LYN 0 | MAP2K1 = 0 | MAP2K2 = 0 | MAP4K2 = 0 | MAPK1 = 0 | MAPK4 = 0 | MAPKAPK2 = 0 | MKNK1 = 0 | NTRK2 = 0 | NTRK3 = 0 | PAK4 = 0 | PBK 0 | PDGFRB 0 | PDK1 = 0
